Data from PMC3777959.
No constants are given. Whether binding was seen depends on the method and setting. Binding seen in cells or lysates may run through a third protein. Some binding calls cover weakened binding; strength is not graded here.

Protein sequences, listed by entry. Tags and fused reporters are not part of them.
UniProt O15379: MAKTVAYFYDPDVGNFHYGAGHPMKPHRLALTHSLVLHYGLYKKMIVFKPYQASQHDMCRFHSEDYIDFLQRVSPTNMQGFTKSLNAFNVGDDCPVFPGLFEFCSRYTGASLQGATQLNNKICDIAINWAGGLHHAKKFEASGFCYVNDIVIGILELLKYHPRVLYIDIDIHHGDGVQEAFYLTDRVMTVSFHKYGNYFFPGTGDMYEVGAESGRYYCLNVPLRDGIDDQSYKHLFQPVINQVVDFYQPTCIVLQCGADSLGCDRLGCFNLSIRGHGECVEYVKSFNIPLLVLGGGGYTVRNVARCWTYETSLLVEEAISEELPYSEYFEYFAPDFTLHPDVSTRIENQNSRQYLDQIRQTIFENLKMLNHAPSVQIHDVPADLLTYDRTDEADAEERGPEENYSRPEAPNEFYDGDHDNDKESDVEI
UniProt Q9Y266: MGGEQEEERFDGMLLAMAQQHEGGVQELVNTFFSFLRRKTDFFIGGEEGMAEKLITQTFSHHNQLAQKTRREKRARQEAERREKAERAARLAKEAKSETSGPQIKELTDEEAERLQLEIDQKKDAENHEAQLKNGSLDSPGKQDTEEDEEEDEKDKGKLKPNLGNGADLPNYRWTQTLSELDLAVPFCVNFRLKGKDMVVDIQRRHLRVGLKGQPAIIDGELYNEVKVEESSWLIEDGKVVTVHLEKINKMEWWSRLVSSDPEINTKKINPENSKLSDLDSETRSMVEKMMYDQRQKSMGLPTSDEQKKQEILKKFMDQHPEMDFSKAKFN
UniProt P53350: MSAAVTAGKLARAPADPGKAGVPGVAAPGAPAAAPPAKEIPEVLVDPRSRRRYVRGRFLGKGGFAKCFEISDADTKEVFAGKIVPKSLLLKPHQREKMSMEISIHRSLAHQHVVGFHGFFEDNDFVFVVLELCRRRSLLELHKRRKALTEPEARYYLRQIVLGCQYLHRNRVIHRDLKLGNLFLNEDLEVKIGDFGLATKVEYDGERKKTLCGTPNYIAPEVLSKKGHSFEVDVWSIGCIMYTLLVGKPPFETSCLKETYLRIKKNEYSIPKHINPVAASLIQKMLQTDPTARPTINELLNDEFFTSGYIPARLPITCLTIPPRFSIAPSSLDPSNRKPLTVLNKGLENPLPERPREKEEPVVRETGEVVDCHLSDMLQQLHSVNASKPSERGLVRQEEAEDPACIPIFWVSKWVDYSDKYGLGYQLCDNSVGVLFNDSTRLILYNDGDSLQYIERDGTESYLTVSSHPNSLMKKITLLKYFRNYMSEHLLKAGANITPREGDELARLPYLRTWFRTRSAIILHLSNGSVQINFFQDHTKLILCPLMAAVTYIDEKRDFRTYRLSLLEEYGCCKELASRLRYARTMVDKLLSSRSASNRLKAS

Key:
[1] = molecular target: histone deacetylase HDAC3 (human (endogenous in HeLa)) (UniProt O15379); assay: co-IP; lysates (2 mg) of HeLa cells synchronised in S, G2, early mitosis (P), late mitosis (A) and G1; immunoprecipitated with a monoclonal anti-HDAC3 antibody, blotted for NudC (R2 antibody); IgG as antibody control
EGFP-NudC WT (human) = EGFP-NudC WT (human) (UniProt Q9Y266); assay: co-IP; HeLa cells transfected with EGFP-NudC WT, K39R or K39Q for 24 h, enriched in mitosis (thymidine and nocodazole block and release); lysates (2 mg) immunoprecipitated with GFP antibody, blotted for HDAC3, Plk1 and GFP; IgG as antibody control

binding [1]	binding (EGFP-NudC WT (human))	Substance
binds		Nuclear distribution protein C (NudC) (from UniProt Q9Y266 1-331)
	binds	polo-like kinase 1 (Plk1) (from UniProt P53350 1-603) (enzyme)
